Our source for the binding values is PMC11254415.

The chains behind the UniProt entries cited, without tags or fusion partners. Residues count along the entry.
UniProt P06756, residues 31-1048: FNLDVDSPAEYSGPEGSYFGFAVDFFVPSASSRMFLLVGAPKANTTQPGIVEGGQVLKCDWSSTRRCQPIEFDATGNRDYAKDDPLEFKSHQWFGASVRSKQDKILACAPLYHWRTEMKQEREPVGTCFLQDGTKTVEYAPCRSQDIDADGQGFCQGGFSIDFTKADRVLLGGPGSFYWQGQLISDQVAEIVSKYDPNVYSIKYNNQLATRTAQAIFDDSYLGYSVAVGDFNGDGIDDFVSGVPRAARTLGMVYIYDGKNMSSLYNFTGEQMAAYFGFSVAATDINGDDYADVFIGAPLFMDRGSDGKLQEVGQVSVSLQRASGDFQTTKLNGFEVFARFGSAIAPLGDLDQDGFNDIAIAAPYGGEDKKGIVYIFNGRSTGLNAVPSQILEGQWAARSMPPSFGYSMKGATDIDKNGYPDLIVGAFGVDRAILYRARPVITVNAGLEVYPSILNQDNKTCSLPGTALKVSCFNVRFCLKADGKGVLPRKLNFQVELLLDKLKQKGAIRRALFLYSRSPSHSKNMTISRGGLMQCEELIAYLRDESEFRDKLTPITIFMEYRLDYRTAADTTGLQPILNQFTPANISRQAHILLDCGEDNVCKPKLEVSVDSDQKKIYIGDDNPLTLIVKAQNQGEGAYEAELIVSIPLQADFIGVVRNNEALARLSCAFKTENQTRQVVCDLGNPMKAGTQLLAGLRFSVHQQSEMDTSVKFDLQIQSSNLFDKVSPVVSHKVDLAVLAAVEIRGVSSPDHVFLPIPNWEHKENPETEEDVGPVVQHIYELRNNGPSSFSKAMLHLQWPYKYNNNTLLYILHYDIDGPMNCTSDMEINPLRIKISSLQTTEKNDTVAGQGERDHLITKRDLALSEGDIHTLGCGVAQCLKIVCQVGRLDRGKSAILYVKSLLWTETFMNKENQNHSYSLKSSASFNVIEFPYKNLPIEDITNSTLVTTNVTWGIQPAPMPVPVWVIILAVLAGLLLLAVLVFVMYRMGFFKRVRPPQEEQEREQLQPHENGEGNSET

Results are given in words; binding and its absence hold for the method and conditions named. Binding seen in cells or lysates may run through a third protein. Some results given as binding are weak or reduced against the parent protein; the word gives no strength. Where a sequence is shown, tags or fusion partners need not be part of it.

The target of the test is T1, Flag-tagged ANGPTL4 (ANGPTL4-Flag) (human) (UniProt Q9BY76).
T1 sequence: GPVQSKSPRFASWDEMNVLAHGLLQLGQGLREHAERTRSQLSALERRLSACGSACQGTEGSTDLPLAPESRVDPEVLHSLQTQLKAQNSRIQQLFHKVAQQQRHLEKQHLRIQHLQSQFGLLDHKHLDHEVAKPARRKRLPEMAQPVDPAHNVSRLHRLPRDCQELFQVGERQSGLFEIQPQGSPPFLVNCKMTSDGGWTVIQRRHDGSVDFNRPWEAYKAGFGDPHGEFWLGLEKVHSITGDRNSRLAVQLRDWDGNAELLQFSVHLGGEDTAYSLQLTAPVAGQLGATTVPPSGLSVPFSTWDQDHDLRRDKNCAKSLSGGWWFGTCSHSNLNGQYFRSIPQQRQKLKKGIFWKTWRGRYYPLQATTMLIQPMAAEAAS
The test is described as follows: co-IP; lysate of AGS cells expressing ANGPTL4-Flag, IP with anti-Flag Abs or control IgG at 4 °C overnight, protein A/G magnetic beads, Western blot for ITGAV. In general terms: A western blot detects proteins with antibodies after separation by electrophoresis.

Take “integrin αV (ITGAV) (from UniProt P06756 31-1048) (receptor)”: the binding entry is “binds”.
